These are yes or no findings as the source states them, for the method shown. Binding seen in cells or lysates may run through a third protein. Some results given as binding are weak or reduced against the parent protein; the word gives no strength. For part of these data: Tags and fused reporters may be left off the sequences shown. Values belong to the binder of their own block, whether it stands above or below them.
Key:
[1] = molecular target: Flag-SIRT1 (human) (UniProt Q96EB6); assay: co-IP; Flag-SIRT1 (wild type or mutant) precipitated from lysates of transfected 293T cells, AROS detected by immunoblot; Figures 6d, e: cells untreated or treated with Adriamycin (0.75 μg/ml for 4 h) and MG-132 (20 μM)
[2] = molecular target: Flag-SIRT1^S682A (human) (UniProt Q96EB6); assay: as above
[3] = molecular target: endogenous SIRT1 (Sirtuin 1) (human (endogenous in U2OS)) (UniProt Q96EB6); assay: co-IP; endogenous SIRT1 precipitated from U2OS lysates, endogenous AROS detected by immunoblot; cells untreated or treated with Adriamycin (0.75 μg/ml for 4 h) and MG-132 (20 μM)

Protein sequences, listed by entry. Tags and fused reporters are not part of them. Lines headed by an entry give the natural chain unless they say otherwise; changes in a name come on top.
UniProt Q96EB6: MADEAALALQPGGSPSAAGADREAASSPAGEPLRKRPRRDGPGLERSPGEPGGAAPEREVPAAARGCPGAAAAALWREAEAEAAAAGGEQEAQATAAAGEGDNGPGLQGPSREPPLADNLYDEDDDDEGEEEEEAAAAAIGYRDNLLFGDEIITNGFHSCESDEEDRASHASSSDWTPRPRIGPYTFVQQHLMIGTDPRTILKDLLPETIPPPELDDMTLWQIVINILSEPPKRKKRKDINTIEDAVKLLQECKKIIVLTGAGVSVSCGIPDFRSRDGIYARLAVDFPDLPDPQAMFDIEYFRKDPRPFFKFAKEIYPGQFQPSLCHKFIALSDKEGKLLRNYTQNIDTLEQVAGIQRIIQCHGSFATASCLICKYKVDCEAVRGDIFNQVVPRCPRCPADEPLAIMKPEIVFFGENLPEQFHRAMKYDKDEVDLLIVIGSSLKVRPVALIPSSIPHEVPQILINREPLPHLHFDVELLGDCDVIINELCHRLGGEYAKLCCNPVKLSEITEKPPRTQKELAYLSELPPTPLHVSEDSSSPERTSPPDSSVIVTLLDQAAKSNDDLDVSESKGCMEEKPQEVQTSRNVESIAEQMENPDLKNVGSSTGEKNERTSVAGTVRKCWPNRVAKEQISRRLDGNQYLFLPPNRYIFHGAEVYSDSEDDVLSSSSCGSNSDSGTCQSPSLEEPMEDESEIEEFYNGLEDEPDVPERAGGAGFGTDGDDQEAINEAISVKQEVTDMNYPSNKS

binding [1]: binds | binding [2]: binds
B1: HA-AROS (protein, UniProt Q86WX3 1-136)
chain: MSAALLRRGLELLAASEAPRDPPGQAKPRGAPVKRPRKTKAIQAQKLRNSAKGKVPKSALDEYRKRECRDHLRVNLKFLTRTRSTVAESVSQQILRQNRGRKACDRPVAKTKKKKAEGTVFTEEDFQKFQQEYFGS

binding [3]: binds
B2: endogenous AROS (active regulator of SIRT1) (protein, UniProt Q86WX3 1-136)
chain: B1 chain

Reference: article PMC4815982
